Results: PubChem BioAssay AID540256 (National Center for Advancing Translational Sciences (NCATS), 2011)
Screen size: about 300,000 compounds; about 3,700 (1.2%) were called active. The shares of active, inactive and inconclusive entries below differ from those in the screen. Calls come from the whole dose curve; tested in HEK293 cells. Potencies beside an inconclusive call are fits to weak or partial responses and may not hold up.

assay: qHTS for Inhibitors of binding or entry into cells for Lassa Virus; settings: Lassa virus pseudotype entry inhibition, cell reporter; series mostly up to 37.9 µM; note: nearly all actives have a fitted effect of over 50% in size
Potency is the fitted concentration of half-maximal effect.

**Q.** Which Potency does the source give for Cc1[nH]c(C(=O)N/N=C/c2ccc(N(C)C)cc2)c(C)c1C(=O)N/N=C/c1ccc(N(C)C)cc1 here?
**A.** inconclusive: 7.94 µM [inhibitor, partial curve, poor fit]

**Q.** Which Potency does the source give for CCN(CC)c1ccc(-c2nn3c(-c4cccnc4)nnc3s2)cc1 here?
**A.** inconclusive: 10.3 µM [inhibitor, partial curve, poor fit]

**Q.** For CCOC(=O)c1c(CSc2ccccc2)oc2ccc(O)cc12, which Potency is on record?
**A.** inconclusive: 18.4 µM [inhibitor, single point]

**Q.** For Nc1cc(=O)[nH]c(SCC(=O)Nc2ccccc2Sc2ccccc2)n1, which Potency is on record?
**A.** inconclusive: 12.6 µM [inhibitor, single point]

**Q.** With O=C(Nc1ccccc1C(F)(F)F)c1cc(-c2ccc(O)cc2)on1 as the molecule, how does the Potency read?
**A.** inconclusive: 4.11 µM [inhibitor, single point]

**Q.** Which Potency does the source give for COc1ccc(-n2c(SCC3OCCO3)nc3c(sc(=S)n3-c3ccccc3)c2=O)cc1OC here?
**A.** inactive

**Q.** Which Potency does the source give for Cc1c(C(=O)NCc2ccoc2)oc2ccc3c(c12)C(=O)CC(C)(C)O3 here?
**A.** inconclusive: 11.2 µM [inhibitor, partial curve]

**Q.** For CC1=CC2=NC(=O)/C(=C\c3cccn3CCOc3cccc(C)c3)C(=N)N2O1, which Potency is on record?
**A.** inconclusive: 11.2 µM [inhibitor, partial curve, poor fit]

**Q.** For C/C(=N\NC(=O)c1cc(C)[nH]n1)c1cccs1, which Potency is on record?
**A.** inconclusive: 7.94 µM [inhibitor, partial curve, poor fit]

**Q.** For CCCc1cnc(N2CCN(C(=O)c3c(-c4ccccc4)noc3C)CC2)nc1, which Potency is on record?
**A.** inconclusive: 2.51 µM [inhibitor, full curve, poor fit]

**Q.** For COc1ccc(C(C)=O)cc1CSc1nnc(Nc2ccc(C)cc2)s1, which Potency is on record?
**A.** inconclusive: 31.6 µM [inhibitor, single point]

**Q.** Which Potency does the source give for CC(C)(C)c1ccc(OCC(=O)N/N=C/c2cc(Br)ccc2OC(=O)c2ccco2)cc1 here?
**A.** inconclusive: 5.01 µM [inhibitor, partial curve]

**Q.** With O=C(COC(=O)c1ccc2[nH]c3c(c2c1)CCCC3)Nc1ccccc1Cl as the molecule, how does the Potency read?
**A.** inactive

**Q.** Which Potency does the source give for CN(C)CCCNC(=O)CCC1CCCCC1 here?
**A.** inactive

**Q.** With CC1(C)Cc2c(C#N)c(SCCC#N)nc(N3CCOCC3)c2CO1 as the molecule, how does the Potency read?
**A.** inactive

**Q.** Which Potency does the source give for O=C(O)CC1(c2ccccc2)C(=O)c2ccccc2C1=O here?
**A.** inactive

**Q.** For CCN(CC)S(=O)(=O)c1ccc(C(=O)NCc2ccc(C)cc2)cc1, which Potency is on record?
**A.** active: 18.3 µM

**Q.** Which Potency does the source give for CC(C)Cc1nc2oc3c(NCc4cccnc4)ncnc3c2c2c1CCC2 here?
**A.** inactive

**Q.** For COc1ccc2c(c1)c1c(c(=O)n(-c3cccc(Cl)c3)c(=O)n1CC(=O)NCC1CCCO1)n2C (stereo not drawn), which Potency is on record?
**A.** inactive

**Q.** Which Potency does the source give for CCN(CC(=O)NCc1cccs1)C(=O)CCC(=O)c1ccc(C)cc1 here?
**A.** inactive

**Q.** With O=C(c1ccc(S(=O)(=O)N2CCCCC2)cc1)N1CCN(c2ccccc2F)CC1 as the molecule, how does the Potency read?
**A.** inconclusive: 5.62 µM [inhibitor, single point]

**Q.** Which Potency does the source give for COc1ccc(N(C)S(=O)(=O)c2cccc(C(=O)NCc3ccc4c(c3)OCO4)c2)cc1 here?
**A.** inconclusive: 35.5 µM [inhibitor, partial curve, poor fit]

**Q.** Which Potency does the source give for CC(C)(C)NC(=O)c1nn(Cc2ccccc2)c(=O)c2ccccc12 here?
**A.** inconclusive: 6.31 µM [inhibitor, single point]

**Q.** With Cc1nc(C)c(C(=O)Nc2ccc(C)c(F)c2)o1 as the molecule, how does the Potency read?
**A.** inconclusive: 6.51 µM [activator, single point]

**Q.** With Cc1ccc(C(=O)NNC(=O)C2CCN(c3nccc(C)n3)CC2)cc1 as the molecule, how does the Potency read?
**A.** inconclusive: 7.3 µM [activator, partial curve]

**Q.** Which Potency does the source give for c1coc(-c2nnc3sc(Cc4cccs4)nn23)c1 here?
**A.** inactive

**Q.** For O=c1oc2ccc3ccccc3c2cc1-c1nnc(Nc2ccc(Cl)cc2Cl)s1, which Potency is on record?
**A.** inconclusive: 1.58 µM [inhibitor, full curve, poor fit]

**Q.** With CCOC(=O)C1(C(F)(F)F)N=C(c2cccnc2)OC(N2CCCCC2)=N1 (stereo not drawn) as the molecule, how does the Potency read?
**A.** inconclusive: 11.2 µM [inhibitor, partial curve, poor fit]

**Q.** For Cc1cc(C)n(-c2cc(O)c(-n3nc(C)cc3C)cc2O)n1, which Potency is on record?
**A.** inconclusive: 8.91 µM [inhibitor, partial curve, poor fit]

**Q.** Which Potency does the source give for CN(C)c1cc[n+](CC(=O)Nc2ccc(Cl)c([N+](=O)[O-])c2)cc1 here?
**A.** inactive

**Q.** For COCC(=O)N/N=C/c1ccc(Sc2nc3ccccc3s2)o1, which Potency is on record?
**A.** inactive

**Q.** With CC(=O)c1cccc(NC(=O)[C@H](Cc2ccccc2)N2Cc3ccccc3C2=O)c1 as the molecule, how does the Potency read?
**A.** inactive

**Q.** With O=C(Nc1nc2c(s1)CCCC2)c1ccc(Br)o1 as the molecule, how does the Potency read?
**A.** inconclusive: 35.5 µM [inhibitor, single point]

**Q.** Which Potency does the source give for COc1ccccc1NC(=O)Cn1nnc(-c2ccccc2NC(=O)c2cccs2)n1 here?
**A.** inconclusive: 2.51 µM [inhibitor, full curve]

**Q.** For NS(=O)(=O)c1ccc(CCN2C(=O)/C(=C\c3ccc(Cl)cc3)SC2=S)cc1, which Potency is on record?
**A.** inconclusive: 35.5 µM [inhibitor, single point]

**Q.** With Cc1cc(C)n(CC(O)COc2ccc3ccccc3c2)n1 (stereo not drawn) as the molecule, how does the Potency read?
**A.** inactive

**Q.** With COCCCn1c(=O)c2sccc2n2c(CCCC(=O)NCc3ccccc3)nnc12 as the molecule, how does the Potency read?
**A.** inconclusive: 5.62 µM [activator, single point]

**Q.** Which Potency does the source give for Cc1ccc(-n2nnnc2SCC(=O)N(CC(C)C)c2c(N)n(CC(C)C)c(=O)[nH]c2=O)cc1 here?
**A.** inconclusive: 35.5 µM [inhibitor, single point]

**Q.** For CCOCCCNC(=O)c1cc2c(=O)n(C)c3ccccc3c2n1C, which Potency is on record?
**A.** inconclusive: 3.98 µM [inhibitor, full curve, poor fit]

**Q.** For Cn1c(=O)c2c(nc(N/N=C/c3cccnc3)n2Cc2ccccc2)n(C)c1=O, which Potency is on record?
**A.** inconclusive: 22.4 µM [inhibitor, single point]

**Q.** With Cn1c2ccccc2c(=O)c2c(=O)n(-c3ccc(F)cc3)c(-c3cccs3)nc21 as the molecule, how does the Potency read?
**A.** inactive

**Q.** Which Potency does the source give for COc1ccc(NC(=O)Cn2c(=O)n(-c3cccc(C)c3)c(=O)c3c2c2cc(C)ccc2n3C)cc1Cl here?
**A.** inconclusive: 1.78 µM [inhibitor, partial curve, poor fit]

**Q.** For COc1ccc(CN(CC(=O)NCc2ccccc2)C(=O)CCC(=O)Nc2cc(C)ccn2)cc1, which Potency is on record?
**A.** inconclusive: 35.5 µM [inhibitor, single point]
